# Measured values: the supplement of paper PMC8728848
# This is one part of the list.
# B1: Erv46-EDTA (Saccharomyces cerevisiae), P39727 (protein)
# chain: MKFLVNVALVFMVVYISYIYAAAPEHHHHHHDYDIPTTENLYFQGAMDSVVTRPQLVVDRDRHAKLELNMDVTFPSMPCDLVNLDIMDDSGEMQLDILDAGFTMSRLNSEGRPVGDATELHVGGNGDGTAPVNNDPNYCGPCYGAKDQSQNENLAQEEKVCCQDCDAVRSAYLEAGWAFFDGKNIEQCEREGYVSKINEHLNEGCRIKGSAQINRIQGNLHFAPGKPYQNAYGHFHDTSLYDKTSNLNFNHIINHLSFGKPIQSHSKLLGNDKRHGGAVVATSPLDGRQVFPDRNTHFHQFSYFAKIVPTRYEYLDNVVIETAQFSATFHSRPLAGGRDKDHPNTLHVRGGIPGMFVFFEMSPLKVINKEQ
# Legend:
# Experiment in all cases: glycan array binding signal (z-score within array); higher = stronger binding
# Conditions in all cases: glycan notation: IUPAC condensed, linker removed
# [1] = target: Gal3S(b1-3)[Fuc(a1-4)]GlcNAc
# Outline: (§1)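 From the Consortium for Functional Glycomics database, 3228 arrays were curated, keeping only those whose protein sequence was available. Binding is given as a within-array Z-score averaged across arrays sharing a protein sequence and across linkers. Negative Z-scores can be read as non-binding.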
# Gal3S(b1-4)Glc = target: Gal3S(b1-4)Glc
# Outline: as §1
# Gal3S(b1-4)Glc6S = target: Gal3S(b1-4)Glc6S
# Outline: as §1
# Gal3S(b1-4)GlcNAc = target: Gal3S(b1-4)GlcNAc
# Outline: as §1
# [2] = target: Gal3S(b1-4)[Fuc(a1-3)]Glc6S
# Outline: as §1
# [3] = target: Gal3S(b1-4)[Fuc(a1-3)]GlcNAc
# Outline: as §1
# [4] = target: Gal3S(b1-4)[Fuc(a1-3)]GlcNAc6S
# Outline: as §1
# Gal3S4S(b1-4)GlcNAc = target: Gal3S4S(b1-4)GlcNAc
# Outline: as §1
# Gal3S6S(b1-4)GlcNAc = target: Gal3S6S(b1-4)GlcNAc
# Outline: as §1
# Gal3S6S(b1-4)GlcNAc6S = target: Gal3S6S(b1-4)GlcNAc6S
# Outline: as §1
# Gal4S(b1-4)GlcNAc = target: Gal4S(b1-4)GlcNAc
# Outline: as §1
# Gal4S6S(b1-4)GlcNAc = target: Gal4S6S(b1-4)GlcNAc
# Outline: as §1
# Gal6P(b1-4)GlcNAc = target: Gal6P(b1-4)GlcNAc
# Outline: as §1
# Gal6S(b1-3)GlcNAc = target: Gal6S(b1-3)GlcNAc
# Outline: as §1
# Gal6S(b1-3)GlcNAc6S = target: Gal6S(b1-3)GlcNAc6S
# Outline: as §1
# Gal6S(b1-4)Glc = target: Gal6S(b1-4)Glc
# Outline: as §1
# Gal6S(b1-4)Glc6S = target: Gal6S(b1-4)Glc6S
# Outline: as §1
# Gal6S(b1-4)GlcNAc = target: Gal6S(b1-4)GlcNAc
# Outline: as §1
# Gal6S(b1-4)GlcNAc6S = target: Gal6S(b1-4)GlcNAc6S
# Outline: as §1
# GalNAc(a1-3)Gal = target: GalNAc(a1-3)Gal
# Outline: as §1
# GalNAc(a1-3)GalNAc = target: GalNAc(a1-3)GalNAc
# Outline: as §1
# [5] = target: GalNAc(a1-3)GalNAc(b1-3)Gal(a1-4)Gal(b1-4)Glc
# Outline: as §1
# [6] = target: GalNAc(a1-3)GalNAc(b1-3)Gal(a1-4)Gal(b1-4)GlcNAc
# Outline: as §1
# GalNAc(b1-3)Gal = target: GalNAc(b1-3)Gal
# Outline: as §1
# [7] = target: GalNAc(b1-3)Gal(a1-4)Gal(b1-4)GlcNAc
# Outline: as §1
# [8] = target: GalNAc(b1-3)Gal(a1-4)Gal(b1-4)GlcNAc(b1-3)Gal(b1-4)Glc
# Outline: as §1
# [9] = target: GalNAc(b1-3)Gal(a1-6)Gal(b1-4)Glc
# Outline: as §1
# GalNAc(b1-3)GalNAc = target: GalNAc(b1-3)GalNAc
# Outline: as §1
# GalNAc(b1-3)GlcNAc = target: GalNAc(b1-3)GlcNAc
# Outline: as §1
# GalNAc(b1-4)Gal(b1-4)Glc = target: GalNAc(b1-4)Gal(b1-4)Glc
# Outline: as §1
# GalNAc(b1-4)GlcNAc = target: GalNAc(b1-4)GlcNAc
# Outline: as §1
# [10] = target: GalNAc(b1-4)GlcNAc(b1-2)Man
# Outline: as §1
# [11] = target: GalNAc(b1-4)GlcNAc(b1-2)Man(a1-3)[GalNAc(b1-4)GlcNAc(b1-2)Man(a1-6)]Man(b1-4)GlcNAc(b1-4)GlcNAc
# Outline: as §1
# [12] = target: GalNAc(b1-4)GlcNAc(b1-3)GalNAc(b1-4)GlcNAc
# Outline: as §1
# GalNAc(b1-4)GlcNAc6S = target: GalNAc(b1-4)GlcNAc6S
# Outline: as §1
# GalNAc(b1-6)GalNAc = target: GalNAc(b1-6)GalNAc
# Outline: as §1
# GalNAc3S(b1-4)GlcNAc = target: GalNAc3S(b1-4)GlcNAc
# Outline: as §1
# GalNAc3S(b1-4)GlcNAc3S = target: GalNAc3S(b1-4)GlcNAc3S
# Outline: as §1
# [13] = target: GalNAc3S(b1-4)[Fuc(a1-3)]GlcNAc
# Outline: as §1
# GalNAc4S6S(b1-4)GlcNAc = target: GalNAc4S6S(b1-4)GlcNAc
# Outline: as §1
# GalNAc6S(b1-4)GlcNAc = target: GalNAc6S(b1-4)GlcNAc
# Outline: as §1
# Glc(a1-4)Glc = target: Glc(a1-4)Glc
# Outline: as §1
# [14] = target: Glc(a1-4)Glc(a1-4)Glc(a1-4)Glc
# Outline: as §1
# Glc(a1-6)Glc(a1-6)Glc = target: Glc(a1-6)Glc(a1-6)Glc
# Outline: as §1
# [15] = target: Glc(a1-6)Glc(a1-6)Glc(a1-6)Glc
# Outline: as §1
binder,measurement,setting,value
B1,glycan array binding signal (z-score),[1],1.12
same,glycan array binding signal (z-score),Gal3S(b1-4)Glc,-0.456
same,glycan array binding signal (z-score),Gal3S(b1-4)Glc6S,-0.683
same,glycan array binding signal (z-score),Gal3S(b1-4)GlcNAc,0.203
same,glycan array binding signal (z-score),[2],0.233
same,glycan array binding signal (z-score),[3],-0.802
same,glycan array binding signal (z-score),[4],0.133
same,glycan array binding signal (z-score),Gal3S4S(b1-4)GlcNAc,0.107
same,glycan array binding signal (z-score),Gal3S6S(b1-4)GlcNAc,-0.461
same,glycan array binding signal (z-score),Gal3S6S(b1-4)GlcNAc6S,0.056
same,glycan array binding signal (z-score),Gal4S(b1-4)GlcNAc,-0.26
same,glycan array binding signal (z-score),Gal4S6S(b1-4)GlcNAc,-0.157
same,glycan array binding signal (z-score),Gal6P(b1-4)GlcNAc,-0.001
same,glycan array binding signal (z-score),Gal6S(b1-3)GlcNAc,-0.805
same,glycan array binding signal (z-score),Gal6S(b1-3)GlcNAc6S,-0.85
same,glycan array binding signal (z-score),Gal6S(b1-4)Glc,0.14
same,glycan array binding signal (z-score),Gal6S(b1-4)Glc6S,-0.774
same,glycan array binding signal (z-score),Gal6S(b1-4)GlcNAc,1.19
same,glycan array binding signal (z-score),Gal6S(b1-4)GlcNAc6S,-0.685
same,glycan array binding signal (z-score),GalNAc(a1-3)Gal,-1.24
same,glycan array binding signal (z-score),GalNAc(a1-3)GalNAc,-0.107
same,glycan array binding signal (z-score),[5],-0.326
same,glycan array binding signal (z-score),[6],-0.623
same,glycan array binding signal (z-score),GalNAc(b1-3)Gal,-0.834
same,glycan array binding signal (z-score),[7],0.221
same,glycan array binding signal (z-score),[8],-0.404
same,glycan array binding signal (z-score),[9],0.442
same,glycan array binding signal (z-score),GalNAc(b1-3)GalNAc,-0.335
same,glycan array binding signal (z-score),GalNAc(b1-3)GlcNAc,-0.295
same,glycan array binding signal (z-score),GalNAc(b1-4)Gal(b1-4)Glc,-0.674
same,glycan array binding signal (z-score),GalNAc(b1-4)GlcNAc,0.697
same,glycan array binding signal (z-score),[10],0.086
same,glycan array binding signal (z-score),[11],1
same,glycan array binding signal (z-score),[12],-0.443
same,glycan array binding signal (z-score),GalNAc(b1-4)GlcNAc6S,-0.064
same,glycan array binding signal (z-score),GalNAc(b1-6)GalNAc,-0.213
same,glycan array binding signal (z-score),GalNAc3S(b1-4)GlcNAc,-0.724
same,glycan array binding signal (z-score),GalNAc3S(b1-4)GlcNAc3S,0.434
same,glycan array binding signal (z-score),[13],-0.49
same,glycan array binding signal (z-score),GalNAc4S6S(b1-4)GlcNAc,-0.841
same,glycan array binding signal (z-score),GalNAc6S(b1-4)GlcNAc,-0.013
same,glycan array binding signal (z-score),Glc(a1-4)Glc,-0.133
same,glycan array binding signal (z-score),[14],-0.298
same,glycan array binding signal (z-score),Glc(a1-6)Glc(a1-6)Glc,0.281
same,glycan array binding signal (z-score),[15],-0.452

# Laid out differently: entries from further up.
binder	measurement	setting	value
B1	glycan array binding signal (z-score)	GalNAc3S(b1-4)GlcNAc	-0.724
same	glycan array binding signal (z-score)	GalNAc3S(b1-4)GlcNAc3S	0.434
